Reference: publication PMC8266800
Results are given in words; binding and its absence hold for the method and conditions named. In cells and extracts the contact can be indirect. Binding can be weak; no strength is given. Where a sequence is shown, tags or fusion partners need not be part of it.

Target: T1, GST-Annexin A6 (UniProt P08133)
T1 sequence: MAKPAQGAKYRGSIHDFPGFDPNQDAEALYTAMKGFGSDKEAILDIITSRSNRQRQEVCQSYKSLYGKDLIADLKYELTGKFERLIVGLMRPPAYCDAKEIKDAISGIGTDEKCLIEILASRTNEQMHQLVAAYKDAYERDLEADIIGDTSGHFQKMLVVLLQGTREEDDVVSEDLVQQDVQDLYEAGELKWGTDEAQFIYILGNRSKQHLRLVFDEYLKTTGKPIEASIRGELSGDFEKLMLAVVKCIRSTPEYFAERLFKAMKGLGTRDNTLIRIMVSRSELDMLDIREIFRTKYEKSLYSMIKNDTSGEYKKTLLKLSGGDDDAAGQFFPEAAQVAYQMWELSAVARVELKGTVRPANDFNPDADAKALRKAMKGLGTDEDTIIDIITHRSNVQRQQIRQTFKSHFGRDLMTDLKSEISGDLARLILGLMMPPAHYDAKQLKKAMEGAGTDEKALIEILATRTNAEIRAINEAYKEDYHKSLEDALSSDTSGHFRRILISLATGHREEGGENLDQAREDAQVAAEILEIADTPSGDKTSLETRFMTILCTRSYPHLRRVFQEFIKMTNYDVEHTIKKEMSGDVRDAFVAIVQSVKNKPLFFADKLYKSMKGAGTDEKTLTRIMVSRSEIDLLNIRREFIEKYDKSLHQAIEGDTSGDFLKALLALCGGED
Experiment: pull-down; GST-Annexin A6 on glutathione resin incubated with lysate of HA-EGFR-transfected HEK293T cells (2 h, 4 °C; 50 mM Tris-HCl pH 7.5, 150 mM NaCl, 1.5 mM MgCl2, 1 mM EDTA, 1% Triton X-100, 10% glycerol); washed three times; western blot; only the target purified

binding: binds
Substance: HA-EGFR (from UniProt P00533) (receptor)
